PubChem BioAssay AID1259254 – NCATS – 2017
This is one part, drawn at random, of about 59,000 reagents tested. In the full data, about 1,550 (2.6%) are marked active. 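G2 share is only a proxy for re-replication; each gene was hit by three separate siRNAs, and active genes were retested.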 Not all columns of the deposit are shown. The record does not give: the amount of reagent.

Test: 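Gene knock-downs that lead to re-replication, shown by excess G2 DNA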 (primary screen)
Cell system: human HCT116 colorectal cancer cells
Knock-down reagent: single siRNA against human genes
Duration: 3 days
Detection: 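Nuclei stained with Hoechst and imaged; cell-cycle phase assigned by DNA content; G2 share scaled per plate, non-targeting siRNA 0%, GMNN siRNA 100%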
Reading the numbers: G2 robust z-score: higher = more G2 cells, more excess DNA replication
Hit rule: 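An siRNA counts as active if its G2 robust z-score lies at least 5 MADs above the screen median; here such calls match roughly 38% of GMNN control or more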

B3GLCT [SID160758200]
- G2 robust z-score: -0.221
- Call: inactive

B3GLCT [SID160758201]
- G2 robust z-score: -0.546
- Call: inactive

B3GLCT [SID160758202]
- G2 robust z-score: -0.281
- Call: inactive

EPN3 [SID160742812]
- G2 robust z-score: -0.361
- Call: inactive

EPN3 [SID160742813]
- G2 robust z-score: -0.965
- Call: inactive

EPN3 [SID160742814]
- G2 robust z-score: -0.446
- Call: inactive

SPDYE7P [SID160725428]
- G2 robust z-score: -0.741
- Call: inactive

SPDYE7P [SID160733413]
- G2 robust z-score: -0.13
- Call: inactive

SPDYE7P [SID160767969]
- G2 robust z-score: 0.951
- Call: inactive

ADGB [SID160749349]
- G2 robust z-score: -0.798
- Call: inactive

ADGB [SID160749350]
- G2 robust z-score: 0.169
- Call: inactive

ADGB [SID160749351]
- G2 robust z-score: -0.388
- Call: inactive

PKD2L2 [SID160738287]
- G2 robust z-score: -0.709
- Call: inactive

PKD2L2 [SID160738288]
- G2 robust z-score: -0.0355
- Call: inactive

PKD2L2 [SID160738289]
- G2 robust z-score: -0.912
- Call: inactive

HS6ST2 [SID160753584]
- G2 robust z-score: 7.19
- Call: active

HS6ST2 [SID160753585]
- G2 robust z-score: 1.45
- Call: inactive

HS6ST2 [SID160753586]
- G2 robust z-score: -0.306
- Call: inactive

2 of these entries in another layout.
| Gene | PubChem SID | G2 robust z-score | Call |
| --- | --- | --- | --- |
| PKD2L2 | SID160738289 | -0.912 | inactive |
| HS6ST2 | SID160753584 | 7.19 | active |
